Results are given in words; binding and its absence hold for the method and conditions named. Some results given as binding are weak or reduced against the parent protein; the word gives no strength.

The chains behind the UniProt entries cited, without tags or fusion partners.
UniProt P08182: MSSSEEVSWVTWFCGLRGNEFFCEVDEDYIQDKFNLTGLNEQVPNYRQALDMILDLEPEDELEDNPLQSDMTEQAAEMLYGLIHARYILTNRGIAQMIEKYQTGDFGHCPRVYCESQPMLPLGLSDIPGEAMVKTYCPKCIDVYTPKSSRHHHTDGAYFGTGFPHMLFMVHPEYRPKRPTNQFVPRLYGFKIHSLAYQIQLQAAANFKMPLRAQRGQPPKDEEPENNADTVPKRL

The target in this assay is T1, casein kinase II alpha subunit (Drosophila (endogenous in embryos)) (UniProt P08181).
T1 sequence: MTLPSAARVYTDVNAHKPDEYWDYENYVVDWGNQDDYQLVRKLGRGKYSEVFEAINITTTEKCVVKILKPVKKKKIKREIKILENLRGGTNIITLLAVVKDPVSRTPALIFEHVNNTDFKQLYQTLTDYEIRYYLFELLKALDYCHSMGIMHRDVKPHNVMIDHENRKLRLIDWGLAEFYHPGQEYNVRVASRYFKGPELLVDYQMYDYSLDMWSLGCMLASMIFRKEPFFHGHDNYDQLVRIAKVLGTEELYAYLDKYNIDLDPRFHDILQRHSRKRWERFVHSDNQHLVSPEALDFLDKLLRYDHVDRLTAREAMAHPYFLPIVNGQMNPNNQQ
The assay is described as follows: SEC; analytical gel filtration of the peak fraction of PSI kinase activity purified from Drosophila embryo nuclear extract; data not shown; both purified. (In general: SEC sorts molecules by how far they enter the pores of the column.)

On to “casein kinase II beta subunit (from UniProt P08182 1-235)”, for which the binding entry was “binds”.

(Values after publication PMC3577899.)
